Experimental data: PubChem BioAssay AID504808 (Drosophila RNAi Screening Center, 2011)

Purpose: 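Genes whose loss lifts activity of an E2F-responsive reporter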 (primary screen)
System: Drosophila S2 cells
Reagent: long dsRNA against Drosophila genes
Measurement: 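Dual luciferase plate measurements; E2F-specific signal taken as firefly over Renilla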
Direction: E2F firefly: higher = more E2F reporter activity; Renilla normaliser: higher = more normaliser reporter signal
Call rule: 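a knock-down counted as active when the firefly/Renilla E2F signal rose above 50%, a threshold chosen arbitrarily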
In all, the deposit lists about 21,000 reagents; shown is a random part of those that have a named target and a result. Of all reagents, 18 (0.084%) got an active call. 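Raw counts without plate normalisation, one of two replicates; the ratio scores behind the calls were not deposited.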 A number with no mark means an inactive call. A plus sign joins genes that one reagent is predicted to hit. The record does not give: the amount of reagent, the time to read-out.

Target gene | amplicon | E2F firefly, rep 1 | Renilla normaliser, rep 1
Gss1 + Gss2 | DRSC20008 | 1.55e5 | 6160
CG8925 | DRSC16455 | 1.19e5 | 7178
CG8925 | DRSC16456 | 1.12e5 | 6786
CG8925 | DRSC16457 | 1.15e5 | 6330
Cipc (Clock interacting protein circadian) | DRSC14898 | 1756 | 868
Cipc (Clock interacting protein circadian) | DRSC14900 | 98080 | 6940
CG11563 | DRSC14327 | 1.14e5 | 5567
Adk2 (Adenosine kinase 2) | DRSC09827 | 82875 | 3663
CG18135 | DRSC10295 | 81751 | 3654
fwe (flower) | DRSC09398 | 1.39e5 | 4297
fwe (flower) | DRSC10594 | 76907 | 4045
GEFmeso (Guanine nucleotide exchange factor in mesoderm) | DRSC06748 | 66973 | 3311
GEFmeso (Guanine nucleotide exchange factor in mesoderm) | DRSC06940 | 1.54e5 | 5303
CG34228 | DRSC05300 | 1.30e5 | 4598
Ggt-1 (gamma-glutamyl transpeptidase) | DRSC19993 | 1.43e5 | 5403
EMC10 (ER membrane protein complex subunit 10) | DRSC11850 | 1.34e5 | 7048
jeb (jelly belly) | DRSC06305 | 87882 | 3991
jeb (jelly belly) | DRSC06307 | 92185 | 3767
CG14913 | DRSC02397 | 1.62e5 | 4953
icln | DRSC07630 | 1.44e5 | 5021
CG4658 | DRSC02768 | 1.46e5 | 5132
CG9512 | DRSC20189 | 7583 | 848
Jhbp3 (Juvenile hormone binding protein 3) | DRSC12247 | 1.24e5 | 6075
Cdc7 (Cdc7 kinase) | DRSC18428 | 5855 | 313
Cdc7 (Cdc7 kinase) | DRSC18429 | 71219 (active) | 6033
Ugt49B1 (UDP-glycosyltransferase family 49 member B1) | DRSC04461 | 1.03e5 | 4715
mi (minus) | DRSC04498 | 99257 | 197
Gr58b (Gustatory receptor 58b) | DRSC04140 | 1.04e5 | 4428
Ykt6 (YKT6 v-SNARE) | DRSC17970 | 7080 | 796
DIP-delta (Dpr-interacting protein delta) | DRSC10214 | 84931 | 3550
DIP-delta (Dpr-interacting protein delta) | DRSC10450 | 95672 | 3976
RpL40 (Ribosomal protein L40) | DRSC00782 | 1.07e5 | 141
CG14502 | DRSC06473 | 76775 | 3507
CG17528 | DRSC07761 | 97723 | 4243
ATPsynCF6L (ATP synthase, coupling factor 6-like) | DRSC08232 | 88826 | 3810
CG7888 | DRSC10926 | 77028 | 3294
Tom20 (Translocase of outer membrane 20) | DRSC10899 | 69045 | 3997
Cluap1 (Clusterin associated protein 1) | DRSC20637 | 1.30e5 | 7197
CG10589 | DRSC11629 | 1.41e5 | 6426
CG30183 | DRSC04450 | 1.13e5 | 4091
CG30183 | DRSC04472 | 1.17e5 | 4132
CG5199 | DRSC11770 | 1.53e5 | 7289
CG5554 | DRSC04513 | 87407 | 4261
ste24c + CG30461 | DRSC05639 | 1.48e5 | 5966
ste24c + CG30461 | DRSC07316 | 1.48e5 | 4777
Drep4 (DNA fragmentation factor-related protein 4) | DRSC03408 | 90236 | 3859
CG13367 | DRSC18485 | 1.24e5 | 5892
CG13367 | DRSC18486 | 51613 | 3826
jing | DRSC04923 | 1.07e5 | 5453
jing | DRSC04927 | 1.32e5 | 6124
jing | DRSC05000 | 79460 | 3394
CG5639 | DRSC15851 | 1.12e5 | 7655
CG5984 | DRSC15930 | 1.12e5 | 5794
CG10163 | DRSC09710 | 1.02e5 | 4303
yellow-g2 | DRSC08338 | 90425 | 4209
CG10254 | DRSC14153 | 90741 | 3485
Lsp1alpha (Larval serum protein 1 alpha) | DRSC20258 | 32358 | 2554
bsh (brain-specific homeobox) | DRSC03498 | 54037 | 3374
CG34149 | DRSC14537 | 63121 | 2984
CG14635 | DRSC17945 | 53708 | 3520
SLO2 (slowpoke 2) | DRSC06212 | 99216 | 3652
SLO2 (slowpoke 2) | DRSC06214 | 1.43e5 | 5167
SLO2 (slowpoke 2) | DRSC06216 | 1.48e5 | 4582
SLO2 (slowpoke 2) | DRSC06218 | 1.45e5 | 4347
SLO2 (slowpoke 2) | DRSC06219 | 1.07e5 | 4468
sturkopf | DRSC08637 | 74898 | 3507
ATPsynF (ATP synthase, subunit F) | DRSC04482 | 86911 | 3804
BomBc1 (Bomanin Bicipital 1) | DRSC06501 | 1.26e5 | 4892
CG12432 (retired record) | DRSC19455 | 1.51e5 | 7185
CG12644 (retired record) | DRSC17850 | 89306 | 4537
Ravus | DRSC15126 | 96450 | 4934
CG14218 | DRSC19575 | 1.19e5 | 7549
rempA (reduced mechanoreceptor potential A) | DRSC00327 | 1.78e5 | 5551
CG16704 | DRSC00475 | 1.45e5 | 5275
spz (spatzle) | DRSC17065 | 2065 | 984
Xrp1 | DRSC15282 | 59082 | 4415
Xrp1 | DRSC15283 | 1.35e5 (active) | 7580
wdp (windpipe) | DRSC04367 | 79806 | 3937
timeout | DRSC12950 | 86622 | 2687
timeout | DRSC17078 | 96451 | 5674
timeout | DRSC17079 | 1.01e5 | 5544
timeout | DRSC17080 | 1.19e5 | 5597
timeout | DRSC17081 | 1.15e5 | 6279
Mlc2 (Myosin light chain 2) | DRSC16741 | 1586 | 1076
CG31729 | DRSC02524 | 77940 | 3802
CG31729 | DRSC02946 | 82366 | 3950
CG15153 | DRSC02454 | 1.05e5 | 4633
halo | DRSC00705 | 1.73e5 | 5844
IleRS (Isoleucyl-tRNA synthetase) | DRSC11667 | 79128 | 3561
Gasz | DRSC06829 | 3815 | 127
Suv3 (Suv3 helicase) | DRSC12335 | 73513 | 3544
CG13634 | DRSC14635 | 1.02e5 | 5791
CG17707 | DRSC20650 | 1.42e5 | 6928
CCT8 (Chaperonin containing TCP1 subunit 8) | DRSC07130 | 2935 | 224
Arl6IP1 (ADP-ribosylation factor-like 6 interacting protein 1) | DRSC14231 | 1.11e5 | 5799
Srp54 (Splicing regulatory protein 54) | DRSC03442 | 74680 | 3586
Trap1 | DRSC05019 | 85637 | 3330
Cpr35B (Cuticular protein 35B) | DRSC01949 | 1.01e5 | 4404
Csgalnact (Chondroitin sulfate N-acetylgalactosaminyltransferase) | DRSC06228 | 1.38e5 | 4824
iotaTry (iotaTrypsin) | DRSC07634 | 89088 | 4136
CG13857 | DRSC14707 | 1.42e5 | 7789
Sln (Silnoon) | DRSC07133 | 92643 | 4488
Qsox1 (Quiescin sulfhydryl oxidase 1) | DRSC06878 | 1.11e5 | 5090
CG32633 | DRSC18987 | 84875 | 2608
Scr (Sex combs reduced) | DRSC12604 | 92089 | 5587
CG1486 | DRSC20508 | 1.51e5 | 5823
Hrb27C (Heterogeneous nuclear ribonucleoprotein at 27C) | DRSC03347 | 99673 | 3767

Records above whose target name begins with A or a:
Target gene | amplicon | E2F firefly, rep 1 | Renilla normaliser, rep 1
Adk2 (Adenosine kinase 2) | DRSC09827 | 82875 | 3663
ATPsynCF6L (ATP synthase, coupling factor 6-like) | DRSC08232 | 88826 | 3810
ATPsynF (ATP synthase, subunit F) | DRSC04482 | 86911 | 3804
Arl6IP1 (ADP-ribosylation factor-like 6 interacting protein 1) | DRSC14231 | 1.11e5 | 5799
